# Test results as given in US20170233409A1, “TYPE IV SECRETION SYSTEM INHIBITORS” (priority 2016, published 2017).
# System: cag T4SS
# Format: cell-based, H. pylori
# Conditions: 4.5 h co-culture; variable slope four parameter fit
row,SMILES,"HillSlope, attenuation of cag T4SS-dependent IL-8 secretion"
1,"COc1ccc(Cc2cc(=O)n3c(c2C2CC2)SC[C@H]3C(=O)O)c2ccccc12 [KSK85, (3R)-7-[(4-methoxynaphthalen-1-yl)methyl]-8-cyclopropyl-5-oxo-2,3-dihydro-5H-[1,3]thiazolo[3,2-a]pyridine-3-carboxylic acid]",−1.23
2,"O=C(O)[C@@H]1CSc2c(C3CC3)c(Cc3cccc4ccccc34)cc(=O)n21 [Compound C10, (3R)-8-cyclopropyl-7-(naphthalen-1-ylmethyl)-5-oxo-3,5-dihydro-2H-thiazolo[3,2-a]pyridine-3-carboxylic acid]",−1.49
3,"O=C(O)[C@@H]1CSc2c(C3CC3)c3cn(-c4ccccc4)cc3c(=O)n21 [GKP42, (3R)-9-cyclopropyl-5-oxo-7-phenyl-2,3,5,7-tetrahydropyrrolo[3,4-d][1,3]thiazolo[3,2-a]pyridine-3-carboxylic acid]",−3.12
